According to the supplement of paper PMC10849652:
The list shows a part of the results.

Protein sequences, listed by entry. Tags and fused reporters are not part of them. Lines headed by an entry give the natural chain unless they say otherwise; changes in a name come on top.
UniProt Q00765: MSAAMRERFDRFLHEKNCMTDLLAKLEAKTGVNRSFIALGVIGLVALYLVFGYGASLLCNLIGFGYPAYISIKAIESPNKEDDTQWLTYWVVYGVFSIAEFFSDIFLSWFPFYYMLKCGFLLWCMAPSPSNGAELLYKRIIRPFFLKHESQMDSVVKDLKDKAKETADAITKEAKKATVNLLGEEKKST
UniProt P46063: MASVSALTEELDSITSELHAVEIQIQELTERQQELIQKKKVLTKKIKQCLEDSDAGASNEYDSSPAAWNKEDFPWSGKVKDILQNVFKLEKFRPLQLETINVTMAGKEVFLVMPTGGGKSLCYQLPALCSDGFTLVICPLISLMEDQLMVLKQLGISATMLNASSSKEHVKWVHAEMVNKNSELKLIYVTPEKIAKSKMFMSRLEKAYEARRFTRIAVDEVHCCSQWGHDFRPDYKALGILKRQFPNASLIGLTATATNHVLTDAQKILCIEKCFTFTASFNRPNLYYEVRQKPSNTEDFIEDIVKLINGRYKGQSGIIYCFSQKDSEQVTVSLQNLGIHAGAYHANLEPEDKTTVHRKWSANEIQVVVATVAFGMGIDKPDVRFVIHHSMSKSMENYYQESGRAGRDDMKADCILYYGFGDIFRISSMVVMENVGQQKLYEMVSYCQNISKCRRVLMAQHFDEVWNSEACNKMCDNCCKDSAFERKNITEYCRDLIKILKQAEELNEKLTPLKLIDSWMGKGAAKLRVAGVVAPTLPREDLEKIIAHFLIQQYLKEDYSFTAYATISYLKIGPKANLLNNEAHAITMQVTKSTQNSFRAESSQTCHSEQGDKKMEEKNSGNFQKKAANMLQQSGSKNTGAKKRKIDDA
UniProt Q8N5W9: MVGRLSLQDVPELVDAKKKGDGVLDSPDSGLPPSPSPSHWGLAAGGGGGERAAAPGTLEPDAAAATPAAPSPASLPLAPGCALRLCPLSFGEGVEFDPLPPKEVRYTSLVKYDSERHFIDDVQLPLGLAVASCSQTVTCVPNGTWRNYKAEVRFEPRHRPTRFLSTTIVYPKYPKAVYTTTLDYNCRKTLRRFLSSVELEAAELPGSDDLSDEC
UniProt Q96EV2: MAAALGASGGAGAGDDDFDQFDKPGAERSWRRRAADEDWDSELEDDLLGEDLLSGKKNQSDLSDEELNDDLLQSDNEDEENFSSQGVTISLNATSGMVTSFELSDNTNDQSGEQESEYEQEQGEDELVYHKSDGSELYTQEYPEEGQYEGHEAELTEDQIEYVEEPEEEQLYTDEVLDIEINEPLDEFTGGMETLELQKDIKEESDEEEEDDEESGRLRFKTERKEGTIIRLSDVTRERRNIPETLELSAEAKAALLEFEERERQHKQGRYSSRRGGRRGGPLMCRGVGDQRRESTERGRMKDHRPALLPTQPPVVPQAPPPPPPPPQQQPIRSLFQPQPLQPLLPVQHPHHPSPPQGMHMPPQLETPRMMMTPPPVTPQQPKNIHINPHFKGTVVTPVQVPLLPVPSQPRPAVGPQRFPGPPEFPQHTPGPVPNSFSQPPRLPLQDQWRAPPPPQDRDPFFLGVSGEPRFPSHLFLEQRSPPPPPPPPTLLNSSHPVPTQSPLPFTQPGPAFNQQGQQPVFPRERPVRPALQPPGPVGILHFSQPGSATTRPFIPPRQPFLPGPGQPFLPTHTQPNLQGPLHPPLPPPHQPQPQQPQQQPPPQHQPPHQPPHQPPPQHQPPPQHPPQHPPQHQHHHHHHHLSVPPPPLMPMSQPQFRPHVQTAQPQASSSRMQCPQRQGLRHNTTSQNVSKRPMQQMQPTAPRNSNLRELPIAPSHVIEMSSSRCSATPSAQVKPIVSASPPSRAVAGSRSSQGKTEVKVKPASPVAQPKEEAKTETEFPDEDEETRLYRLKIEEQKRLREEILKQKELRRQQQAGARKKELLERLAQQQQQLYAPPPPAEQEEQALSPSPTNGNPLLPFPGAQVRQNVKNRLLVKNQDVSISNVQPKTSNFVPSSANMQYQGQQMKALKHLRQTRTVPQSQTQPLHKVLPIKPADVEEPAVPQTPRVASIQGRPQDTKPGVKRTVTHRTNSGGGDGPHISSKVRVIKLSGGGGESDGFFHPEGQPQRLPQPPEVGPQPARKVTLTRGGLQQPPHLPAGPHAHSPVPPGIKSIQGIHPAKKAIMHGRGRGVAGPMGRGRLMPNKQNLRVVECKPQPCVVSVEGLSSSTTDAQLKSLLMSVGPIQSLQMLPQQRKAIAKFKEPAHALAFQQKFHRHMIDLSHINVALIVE
UniProt Q96D15: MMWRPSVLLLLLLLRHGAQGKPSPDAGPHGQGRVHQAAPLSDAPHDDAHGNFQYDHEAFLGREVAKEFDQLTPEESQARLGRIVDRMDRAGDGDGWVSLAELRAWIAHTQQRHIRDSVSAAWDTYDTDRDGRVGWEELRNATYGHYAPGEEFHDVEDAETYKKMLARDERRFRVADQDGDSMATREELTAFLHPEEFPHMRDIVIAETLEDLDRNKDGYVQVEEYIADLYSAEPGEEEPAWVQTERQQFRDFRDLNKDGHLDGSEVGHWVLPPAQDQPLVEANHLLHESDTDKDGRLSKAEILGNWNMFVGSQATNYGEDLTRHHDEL
UniProt P22670: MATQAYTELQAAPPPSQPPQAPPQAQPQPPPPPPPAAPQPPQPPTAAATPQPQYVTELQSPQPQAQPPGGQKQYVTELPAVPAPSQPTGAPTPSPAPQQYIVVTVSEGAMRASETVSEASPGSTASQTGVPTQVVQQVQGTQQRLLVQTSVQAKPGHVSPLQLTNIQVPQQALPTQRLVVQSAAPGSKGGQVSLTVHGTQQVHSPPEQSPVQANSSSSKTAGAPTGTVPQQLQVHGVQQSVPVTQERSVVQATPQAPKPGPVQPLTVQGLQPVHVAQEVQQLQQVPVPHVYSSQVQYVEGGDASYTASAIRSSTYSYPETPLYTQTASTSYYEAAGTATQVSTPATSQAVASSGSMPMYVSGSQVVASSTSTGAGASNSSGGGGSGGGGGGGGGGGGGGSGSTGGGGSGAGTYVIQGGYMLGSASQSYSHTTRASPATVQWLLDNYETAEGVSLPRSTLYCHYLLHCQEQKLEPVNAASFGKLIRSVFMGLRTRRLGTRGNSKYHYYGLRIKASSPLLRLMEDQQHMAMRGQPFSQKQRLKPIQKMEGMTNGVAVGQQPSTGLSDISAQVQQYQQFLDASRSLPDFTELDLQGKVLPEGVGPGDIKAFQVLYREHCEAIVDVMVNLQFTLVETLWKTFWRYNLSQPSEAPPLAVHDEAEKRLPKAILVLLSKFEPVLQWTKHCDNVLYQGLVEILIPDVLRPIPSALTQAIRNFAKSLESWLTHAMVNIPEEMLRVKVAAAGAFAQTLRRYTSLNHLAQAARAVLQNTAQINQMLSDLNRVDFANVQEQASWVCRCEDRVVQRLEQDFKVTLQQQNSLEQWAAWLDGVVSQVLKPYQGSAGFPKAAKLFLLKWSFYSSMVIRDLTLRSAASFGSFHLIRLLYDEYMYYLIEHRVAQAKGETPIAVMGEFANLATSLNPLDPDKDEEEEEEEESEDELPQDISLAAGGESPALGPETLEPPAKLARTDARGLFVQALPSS
UniProt P53805: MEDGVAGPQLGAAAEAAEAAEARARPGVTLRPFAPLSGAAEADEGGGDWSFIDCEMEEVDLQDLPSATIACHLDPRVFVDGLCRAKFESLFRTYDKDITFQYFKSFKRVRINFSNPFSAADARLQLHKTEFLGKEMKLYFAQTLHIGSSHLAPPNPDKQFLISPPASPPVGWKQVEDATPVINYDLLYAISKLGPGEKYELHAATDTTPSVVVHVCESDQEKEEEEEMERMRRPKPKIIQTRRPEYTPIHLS
UniProt Q86VR2, whole entry, looked up: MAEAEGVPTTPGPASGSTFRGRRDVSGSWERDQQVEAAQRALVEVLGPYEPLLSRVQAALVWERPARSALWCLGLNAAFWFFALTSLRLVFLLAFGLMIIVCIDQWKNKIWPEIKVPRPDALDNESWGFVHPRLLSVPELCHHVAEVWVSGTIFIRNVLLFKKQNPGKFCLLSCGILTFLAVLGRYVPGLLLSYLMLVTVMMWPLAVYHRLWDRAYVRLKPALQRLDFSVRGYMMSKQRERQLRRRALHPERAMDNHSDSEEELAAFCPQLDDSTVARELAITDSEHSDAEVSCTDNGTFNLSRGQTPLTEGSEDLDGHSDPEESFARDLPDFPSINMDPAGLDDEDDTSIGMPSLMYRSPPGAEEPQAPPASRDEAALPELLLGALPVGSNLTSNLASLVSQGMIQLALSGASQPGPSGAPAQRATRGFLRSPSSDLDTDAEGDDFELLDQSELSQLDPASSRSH
UniProt Q92546: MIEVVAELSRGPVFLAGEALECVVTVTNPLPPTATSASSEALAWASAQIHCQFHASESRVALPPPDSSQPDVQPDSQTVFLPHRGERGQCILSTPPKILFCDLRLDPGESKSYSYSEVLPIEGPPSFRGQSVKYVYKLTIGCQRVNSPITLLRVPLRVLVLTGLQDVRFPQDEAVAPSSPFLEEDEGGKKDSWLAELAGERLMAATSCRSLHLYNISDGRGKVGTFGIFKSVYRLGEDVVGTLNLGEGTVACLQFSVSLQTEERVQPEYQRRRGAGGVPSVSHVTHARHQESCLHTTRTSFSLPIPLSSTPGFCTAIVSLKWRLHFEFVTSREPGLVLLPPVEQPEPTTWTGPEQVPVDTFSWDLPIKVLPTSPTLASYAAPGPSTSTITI
UniProt Q14498: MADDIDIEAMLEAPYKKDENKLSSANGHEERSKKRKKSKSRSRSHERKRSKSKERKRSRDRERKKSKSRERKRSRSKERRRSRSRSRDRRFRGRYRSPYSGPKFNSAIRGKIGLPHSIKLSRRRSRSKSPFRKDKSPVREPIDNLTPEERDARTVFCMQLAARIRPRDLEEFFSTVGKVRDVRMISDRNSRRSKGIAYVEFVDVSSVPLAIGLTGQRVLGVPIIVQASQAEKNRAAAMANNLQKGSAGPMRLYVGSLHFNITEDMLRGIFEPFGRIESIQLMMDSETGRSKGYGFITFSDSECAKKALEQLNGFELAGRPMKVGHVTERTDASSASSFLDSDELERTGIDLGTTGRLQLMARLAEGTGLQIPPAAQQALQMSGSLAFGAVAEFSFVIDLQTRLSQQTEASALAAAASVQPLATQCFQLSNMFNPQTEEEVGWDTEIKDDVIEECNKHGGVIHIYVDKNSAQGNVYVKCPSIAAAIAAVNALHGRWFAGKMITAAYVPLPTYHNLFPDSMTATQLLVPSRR
UniProt Q02094: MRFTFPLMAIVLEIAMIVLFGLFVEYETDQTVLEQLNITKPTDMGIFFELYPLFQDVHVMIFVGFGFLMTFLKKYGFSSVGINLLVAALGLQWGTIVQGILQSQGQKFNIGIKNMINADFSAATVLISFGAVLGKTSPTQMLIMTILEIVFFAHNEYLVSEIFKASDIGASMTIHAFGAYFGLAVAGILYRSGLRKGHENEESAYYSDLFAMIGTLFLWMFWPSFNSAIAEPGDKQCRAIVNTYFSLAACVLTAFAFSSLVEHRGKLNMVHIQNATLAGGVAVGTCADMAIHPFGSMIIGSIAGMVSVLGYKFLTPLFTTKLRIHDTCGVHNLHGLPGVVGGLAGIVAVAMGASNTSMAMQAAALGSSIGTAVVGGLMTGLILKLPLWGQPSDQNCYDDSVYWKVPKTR
UniProt Q9BWF3: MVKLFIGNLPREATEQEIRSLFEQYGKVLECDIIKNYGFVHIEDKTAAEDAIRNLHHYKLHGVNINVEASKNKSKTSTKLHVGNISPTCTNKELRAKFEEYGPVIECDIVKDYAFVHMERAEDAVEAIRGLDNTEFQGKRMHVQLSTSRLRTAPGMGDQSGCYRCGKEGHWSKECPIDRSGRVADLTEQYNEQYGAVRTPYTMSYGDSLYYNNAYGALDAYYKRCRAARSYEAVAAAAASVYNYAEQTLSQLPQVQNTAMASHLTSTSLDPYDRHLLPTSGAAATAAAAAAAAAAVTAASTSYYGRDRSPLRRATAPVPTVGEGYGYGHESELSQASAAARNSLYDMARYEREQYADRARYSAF
UniProt Q9BYM8: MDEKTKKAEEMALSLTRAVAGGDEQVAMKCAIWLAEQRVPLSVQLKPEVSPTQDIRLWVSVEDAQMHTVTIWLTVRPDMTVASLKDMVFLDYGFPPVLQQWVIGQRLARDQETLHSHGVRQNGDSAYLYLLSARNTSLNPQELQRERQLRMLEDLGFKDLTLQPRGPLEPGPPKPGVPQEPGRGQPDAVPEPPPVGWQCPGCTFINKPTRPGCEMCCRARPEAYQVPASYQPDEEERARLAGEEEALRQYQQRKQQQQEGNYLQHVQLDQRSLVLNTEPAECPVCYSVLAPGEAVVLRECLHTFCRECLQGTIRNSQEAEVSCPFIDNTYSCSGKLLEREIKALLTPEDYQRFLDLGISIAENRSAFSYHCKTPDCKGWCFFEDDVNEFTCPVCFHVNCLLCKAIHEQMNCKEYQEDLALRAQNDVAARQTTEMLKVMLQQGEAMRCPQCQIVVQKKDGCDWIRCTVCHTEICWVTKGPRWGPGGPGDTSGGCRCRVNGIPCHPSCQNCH

How the values were obtained:
Assay in all cases: log2 fold change, soluble protein after heating vs DMSO (PISA); higher = thermal stabilisation; K562 lysate, 10 uM; active = over 0.2 and 3.5 SD of the protein, either way, in both replicates (recomputed)
erlotinib = compound: C#Cc1cccc(Nc2ncnc3cc(OCCOC)c(OCCOC)cc23)c1 [erlotinib]
Summary of the method: (§1)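 To prepare the extract, K562 pellets were dounce-homogenised in PBS pH 7.4 with 1 mM MgCl2, giving crude material at 1 mg/mL protein. This was treated with 10 μM compound for 30 min, then heated in aliquots for 3 min over 48°C-58°C before pooling and addition of NP-40 to 0.5% at 4°C. Centrifugation at 21,000xg for 90 min left soluble protein in the supernatant, which TMTpro 16plex LC-MS/MS quantified with equalised channel sums. Results are log-two fold changes in thermal stability compared with solvent controls, from duplicates.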

[1] = compound: C/C(=N\NC(=O)C1=CC(=CC=C1)S(=O)(=O)N2CCOCC2)/C3=C(C=CC(=C3)Cl)O
Summary of the method: as §1

[2] = compound: C1=CC(=CC=C1C2=NC3=C(N2)C=C(C=C3)C(=O)N)OC4=CC=C(C=C4)Cl
Summary of the method: as §1

[3] = compound: C1=CC2=C(C=CC(=C2)/C=C\3/C(=O)NC(=NCC4=CC=CS4)S3)N=C1
Summary of the method: as §1

[4] = compound: C1=CC2=NC=CN=C2C=C1/C=C/3\C(=O)NC(=O)S3
Summary of the method: as §1

[5] = compound: C1=CC=C(C=C1)C2=NC(=C(N2)C3=CC=NC=C3)C4=CC(=C(C=C4)Cl)O
Summary of the method: as §1

[6] = compound: C1=CC=C2C(=C1)C3=NNC4=CC=CC(=C43)C2=O
Summary of the method: as §1

[7] = compound: C1CCN(C1)C(=O)NC2=CC=CC(=C2)NC3=NC=C(C(=N3)NCCC4=CN=CN4)Br
Summary of the method: as §1

[8] = compound: C1CN(CCC1(CC2=CC=C(C=C2)Cl)N)C3=NC=NC4=C3C=CN4
Summary of the method: as §1

IRAK-1-4 Inhibitor I = compound: C1COCCN1CCN2C3=CC=CC=C3N=C2NC(=O)C4=CC(=CC=C4)[N+](=O)[O-] [IRAK-1-4 Inhibitor I]
Summary of the method: as §1

ibrutinib = compound: C=CC(=O)N1CCC[C@@H](n2nc(-c3ccc(Oc4ccccc4)cc3)c3c(N)ncnc32)C1 [ibrutinib]
Summary of the method: as §1

[9] = compound: CC(=O)c1cnc2ccc(-c3cc(Cl)c(O)c(Cl)c3)nc2c1N[C@H]1CC[C@H](CN(C)C)CC1
Summary of the method: as §1

ralimetinib = compound: CC(C)(C)Cn1c(N)nc2ccc(-c3[nH]c(C(C)(C)C)nc3-c3ccc(F)cc3)nc21 [ralimetinib]
Summary of the method: as §1

[10] = compound: CC(C)(O)CC(=O)NCCn1ccc2ncnc(Nc3ccc(Oc4cccc(C(F)(F)F)c4)c(Cl)c3)c21
Summary of the method: as §1

[11] = compound: CC(C)C1=C2N=C(C=C(N2N=C1)NCC3=CC=CC=C3)NCCCCCCN
Summary of the method: as §1

[12] = compound: CC1=C(C(CC(=O)N1)C2=CC=C(C=C2)C(F)(F)F)C(=O)NC3=C(C=C4C(=C3)C=NN4)F
Summary of the method: as §1

[13] = compound: CC1=C(C2=C(C=C1)C(=O)C3=CC=CC=C3N2CCCN)C
Summary of the method: as §1

[14] = compound: CC1=C(C=C(C=C1)NC(=O)C2=CC(=CC=C2)C(C)(C)C#N)NC3=CC4=C(C=C3)N=CN(C4=O)C
Summary of the method: as §1

[15] = compound: CC1=C(C=C(C=C1)NC(=O)C2=CC(=CC=C2)N(C)C)NC(=O)C3=CC=C(C=C3)O
Summary of the method: as §1

[16] = compound: CC1=CC=C(C=C1)SC2=C3C=C(SC3=CN=C2)C(=O)N
Summary of the method: as §1

Measured: log2 fold change

REEP5 (UniProt Q00765)
inactive: erlotinib 0.017 | [1] -0.041 | [2] 0.022 | [3] 0.036 | [4] 0.001 | [5] -0.008 | [6] -0.077 | [7] -0.008 | [8] 0.015 | IRAK-1-4 Inhibitor I 0.025 | ibrutinib 0.043 | [9] 0.004 | ralimetinib -0.014 | [10] -0.01 | [11] -0.037 | [12] 0.017 | [13] -0.039 | [14] 0.004 | [15] -0.016 | [16] -0.042

RECQL (UniProt P46063)
inactive: erlotinib 0.001 | [1] 0.039 | [2] 0.027 | [3] 0.034 | [4] -0.009 | [5] 0.003 | [6] -0.03 | [7] -0.026 | [8] -0.012 | IRAK-1-4 Inhibitor I -0.002 | ibrutinib -0.012 | [9] -0.003 | ralimetinib 0.002 | [10] 0.019 | [11] 0.011 | [12] -0.004 | [13] -0.017 | [14] 0.017 | [15] -0.015 | [16] -0.003

RFLNB (UniProt Q8N5W9)
inactive: erlotinib -0.109 | [1] -0.142 | [2] -0.087 | [3] 0.044 | [4] 0.094 | [5] -0.077 | [6] 0.001 | [7] 0.064 | [8] -0.008 | IRAK-1-4 Inhibitor I 0.141 | ibrutinib 0.053 | [9] -0.016 | ralimetinib -0.05 | [10] 0.013 | [11] 0.006 | [12] 0.134 | [13] 0.144 | [14] -0.065 | [15] 0.001 | [16] 0.103

RFK (UniProt Q969G6)
inactive: erlotinib 0.003 | [1] 0.034 | [2] 0.032 | [3] -0.046 | [4] -0.071 | [5] -0.003 | [6] 0.077 | [7] 0.062 | [8] 0.073 | IRAK-1-4 Inhibitor I 0.028 | ibrutinib 0.052 | [9] -0.037 | ralimetinib 0.056 | [10] 0.091 | [11] -0.017 | [12] 0.005 | [13] 0.032 | [14] 0.007 | [15] 0.027 | [16] -0.042

RBM33 (UniProt Q96EV2)
inactive: erlotinib 0.013 | [1] 0.059 | [2] -0.007 | [3] 0.012 | [4] -0.036 | [5] -0.028 | [6] -0.044 | [7] -0.012 | [8] 0.015 | IRAK-1-4 Inhibitor I 0.031 | ibrutinib 0.056 | [9] 0.004 | ralimetinib 0.065 | [10] -0.013 | [11] -0.014 | [12] -0.022 | [13] -0.002 | [14] 0.021 | [15] -0.003 | [16] -0.013

RCN3 (UniProt Q96D15)
inactive: erlotinib 0.01 | [1] 0.049 | [2] -0.016 | [3] -0.064 | [4] -0.009 | [5] -0.014 | [6] -0.057 | [7] -0.03 | [8] 0.01 | IRAK-1-4 Inhibitor I 0.023 | ibrutinib 0.137 | [9] -0.019 | ralimetinib -0.015 | [10] -0.016 | [11] -0.032 | [12] 0.01 | [13] -0.017 | [14] -0.01 | [15] 0.013 | [16] -0.002

RFX1 (UniProt P22670)
inactive: erlotinib -0.015 | [1] -0.005 | [2] -0.028 | [3] 0.001 | [4] 0 | [5] 0.003 | [6] -0.045 | [7] 0.003 | [8] -0.01 | IRAK-1-4 Inhibitor I 0.017 | ibrutinib 0.021 | [9] 0.008 | ralimetinib -0.001 | [10] -0.007 | [11] -0.018 | [12] 0.028 | [13] 0.023 | [14] 0.033 | [15] 0 | [16] -0.002

RCAN1 (UniProt P53805)
inactive: erlotinib 0.06 | [1] -0.206 | [2] -0.033 | [3] -0.018 | [4] -0.04 | [5] 0.008 | [6] 0.045 | [7] -0.095 | [8] 0.016 | IRAK-1-4 Inhibitor I -0.024 | ibrutinib -0.019 | [9] 0.003 | ralimetinib -0.004 | [10] 0.012 | [11] 0.002 | [12] 0.026 | [13] -0.027 | [14] 0.085 | [15] -0.02 | [16] 0.02

Copied from the entries so far (2 entries):
RFX1 (UniProt P22670)
inactive: erlotinib -0.015 | [1] -0.005 | [2] -0.028 | [3] 0.001 | [4] 0 | [5] 0.003 | [6] -0.045 | [7] 0.003 | [8] -0.01 | IRAK-1-4 Inhibitor I 0.017 | ibrutinib 0.021 | [9] 0.008 | ralimetinib -0.001 | [10] -0.007 | [11] -0.018 | [12] 0.028 | [13] 0.023 | [14] 0.033 | [15] 0 | [16] -0.002

RCAN1 (UniProt P53805)
inactive: erlotinib 0.06 | [1] -0.206 | [2] -0.033 | [3] -0.018 | [4] -0.04 | [5] 0.008 | [6] 0.045 | [7] -0.095 | [8] 0.016 | IRAK-1-4 Inhibitor I -0.024 | ibrutinib -0.019 | [9] 0.003 | ralimetinib -0.004 | [10] 0.012 | [11] 0.002 | [12] 0.026 | [13] -0.027 | [14] 0.085 | [15] -0.02 | [16] 0.02

Remaining list, next part.

RETREG3 (UniProt Q86VR2)
inactive: erlotinib 0.045 | [1] -0.009 | [2] -0.088 | [3] -0.018 | [4] 0.037 | [5] 0.007 | [6] -0.095 | [7] 0.038 | [8] 0.001 | IRAK-1-4 Inhibitor I 0.091 | ibrutinib -0.006 | [9] -0.025 | ralimetinib -0.039 | [10] -0.058 | [11] 0.054 | [12] 0.068 | [13] -0.059 | [14] 0.097 | [15] 0.085 | [16] -0.043

RGP1 (UniProt Q92546)
inactive: erlotinib 0.022 | [1] 0.129 | [2] 0.086 | [3] 0.201 | [4] -0.011 | [5] 0.257 | [6] -0.138 | [7] -0.049 | [8] 0.021 | IRAK-1-4 Inhibitor I 0.132 | ibrutinib -0.005 | [9] -0.139 | ralimetinib 0.037 | [10] 0.203 | [11] -0.047 | [12] 0.034 | [13] -0.06 | [14] 0.034 | [15] -0.005 | [16] -0.018

RBM39 (UniProt Q14498)
inactive: erlotinib 0.053 | [1] -0.017 | [2] -0.074 | [3] 0.001 | [4] -0.102 | [5] -0.03 | [6] -0.015 | [7] -0.018 | [8] -0.013 | IRAK-1-4 Inhibitor I -0.078 | ibrutinib 0.011 | [9] 0.02 | ralimetinib 0.014 | [10] -0.006 | [11] 0.057 | [12] -0.001 | [13] -0.018 | [14] -0.007 | [15] 0.024 | [16] 0.071

RBM7 (UniProt Q9Y580)
inactive: erlotinib 0 | [1] 0 | [2] -0.085 | [3] -0.058 | [4] 0.036 | [5] -0.013 | [6] -0.016 | [7] 0.056 | [8] 0.051 | IRAK-1-4 Inhibitor I -0.035 | ibrutinib -0.009 | [9] 0.043 | ralimetinib 0.04 | [10] 0.017 | [11] -0.013 | [12] -0.002 | [13] 0.03 | [14] -0.029 | [15] 0.03 | [16] 0.013

RHAG (UniProt Q02094)
inactive: erlotinib 0.017 | [1] -0.123 | [2] -0.087 | [3] 0.086 | [4] -0.007 | [5] -0.012 | [6] -0.145 | [7] -0.126 | [8] -0.014 | IRAK-1-4 Inhibitor I 0.081 | ibrutinib 0.004 | [9] -0.035 | ralimetinib -0.001 | [10] -0.068 | [11] 0.042 | [12] 0.09 | [13] -0.056 | [14] 0.08 | [15] 0.008 | [16] -0.003

RBM4 (UniProt Q9BWF3)
inactive: erlotinib -0.031 | [1] 0.059 | [2] -0.008 | [3] 0.009 | [4] 0.008 | [5] -0.065 | [6] -0.008 | [7] 0.001 | [8] 0 | IRAK-1-4 Inhibitor I -0.003 | ibrutinib 0.006 | [9] 0.021 | ralimetinib 0.008 | [10] -0.014 | [11] 0.023 | [12] 0.028 | [13] 0.005 | [14] -0.154 | [15] 0.025 | [16] -0.004

RBM12 (UniProt Q9NTZ6)
inactive: erlotinib -0.011 | [1] -0.045 | [2] 0.018 | [3] 0.009 | [4] 0.008 | [5] 0.008 | [6] -0.037 | [7] -0.011 | [8] 0.026 | IRAK-1-4 Inhibitor I -0.021 | ibrutinib -0.002 | [9] 0.002 | ralimetinib -0.02 | [10] 0 | [11] -0.006 | [12] -0.003 | [13] 0.02 | [14] -0.016 | [15] 0.021 | [16] 0

RBCK1 (UniProt Q9BYM8)
inactive: erlotinib 0.03 | [1] 0.063 | [2] 0.002 | [3] 0.052 | [4] 0.029 | [5] -0.052 | [6] -0.05 | [7] 0.024 | [8] -0.034 | IRAK-1-4 Inhibitor I 0.018 | ibrutinib -0.017 | [9] 0.023 | ralimetinib 0.055 | [10] -0.004 | [11] -0.035 | [12] 0.037 | [13] -0.008 | [14] 0.028 | [15] 0 | [16] 0.019
